No constants are given. Whether binding was seen depends on the method and setting. Some entries that bind do so weakly or less than the wild type.
Target: UEV-1 (C. elegans) (UniProt O45495)
Assay: two-hybrid; yeast two-hybrid; unpublished data (S. Utarrala and L.B.), told beside a citation of ref. 58; which protein was bait is not told

Amino acid sequences for entries named in this document (tags omitted).
UniProt O45495: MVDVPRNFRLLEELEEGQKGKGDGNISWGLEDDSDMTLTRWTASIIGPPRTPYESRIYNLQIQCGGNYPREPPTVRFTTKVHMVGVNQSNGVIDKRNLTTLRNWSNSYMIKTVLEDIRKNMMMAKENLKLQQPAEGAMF

- binding: binds
B1: UBC-13 (enzyme, UniProt Q95XX0 1-151)
chain: MAGQLPRRIIKETQRLLADPVPGISANPDESNARYFHVMIAGPDDSPFAGGVFKLELFLPEEYPMAAPKVRFMTKIYHPNIDKLGRICLDILKDKWSPALQIRTVLLSIQALLSAPNPEDPLATDVAEQWKTNEAEAIKTAKQWTMNYAQA
